# Results of single-concentration screens

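Whole-parasite assay of Trypanosoma brucei over 72 hours; the read-out is not stated. Concentration: 30 µM. Higher reads as stronger inhibition (inferred: compounds with an IC50 in retests scored well above the rest). Values scatter widely below zero; nearly all retest evidence comes from the higher of the two concentrations used. Size under these conditions: about 64,000 compounds, about 940 of them at 50% or above in at least one test.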

Values are the deposited “Percent Effect”, in %.
How 0% and 100% were set is not recorded. Most values in the screen are low, and negative values occur.
The compounds are a random part of those screened.

| # | structure | effect |
|---|---|---|
| 1 | `Cc1nsc(N2CCN(C(=O)Nc3cccc(F)c3)CC2)n1` | -5.442 |
| 2 | `Cc1c(C(=O)O)cnn1-c1ccc(-c2nc(C3CC3)no2)cn1` | 6.66 |
| 3 | `O=C(NCCc1ccccn1)N1CCOC(c2ccccc2Cl)C1` (configuration not stated) | -9.408 |
| 4 | `COc1ccc(-n2cccn2)c(CN2CCC3(CCCN(C)C3=O)C2)c1` (configuration not stated) | -2.325 |
| 5 | `CCN1CCCC(c2c(-c3ccccc3)ncn2CCCO)C1` (configuration not stated) | 1.53 |
| 6 | `CN1CC(=O)N(c2ccsc2)CC12CCN(S(C)(=O)=O)C2.O=C(O)C(F)(F)F` (configuration not stated) | -27 |
| 7 | `C=Cc1cccc(CN2CCCn3nc(CNS(C)(=O)=O)cc3C2)c1` | -17.09 |
| 8 | `CN1CCCC1c1ccnc2nccn12` (configuration not stated) | -8.417 |
| 9 | `CCCN(CC(=O)N(C)C)C(=O)c1ccc(-c2nc(C)cs2)cc1` | -0.7993 |
| 10 | `CC(=O)N1N=C(c2ccccc2)OC1C(=O)NCCc1ccc(O)cc1` (configuration not stated) | -23.74 |
| 11 | `CN(c1ccc(C(=O)NCCCN2CCCC2)c(Cl)c1)S(C)(=O)=O` | -53.96 |
| 12 | `O=C(O)c1ccnc(-c2ccnc(NCCc3cscn3)n2)c1` | 5.46 |
| 13 | `Cc1cccc(C)c1-c1cc(NCCO)nc2[nH]ccc12` | -26.61 |
| 14 | `CCSCc1ccc(C(=O)N2CCCN(CC)CC2)cc1` | -6.592 |
| 15 | `Cc1c(C(=O)NC2CCCOc3cc(Cl)ccc32)cnn1C` (configuration not stated) | -20.46 |
| 16 | `O=C(O)C(F)(F)F.O=C(O)C(F)(F)F.c1cncc(CN2CCn3c(Cn4cncn4)cnc3C2)c1` | -106.7 |
| 17 | `O=C(C1CCCC1)N1CCOC(c2nc(-c3ncccn3)no2)C1` (configuration not stated) | -7.672 |
| 18 | `CC(=O)NC1CCN(c2ccc(C#N)cc2C(F)(F)F)CC1` | 15.06 |
| 19 | `COc1ccc(OC)c(C2CCN(Cc3nc(C)n4ccccc34)C2)c1` (configuration not stated) | -0.9431 |
| 20 | `c1ccc(-n2nnnc2NCc2ccc3c(c2)OCO3)cc1` | -22.87 |
| 21 | `O=C(O)C(F)(F)F.O=C(O)C(F)(F)F.O=C(O)C(F)(F)F.[H][C@@]12CN(Cc3nccs3)CCC[C@]1(C(=O)OCC)CN(CCN(C)C)C2` | -10.3 |
| 22 | `COCCN1CCC(CNC(=O)C2(S(C)(=O)=O)CCCC2)CC1` | -62.47 |
| 23 | `CCn1cc(CN2CCCn3nc(CNC(=O)C4CCC4)cc3C2)cn1` | 14.58 |
| 24 | `O[C@H]1[C@H](NCCSc2ccccn2)c2ccccc2C12CCNCC2` | 13.8 |
| 25 | `Cc1nnc(CN(C)CC(=O)NC(C)(C)c2ccc(F)cc2)n1C` | -39.02 |
| 26 | `COCC(=O)N1CCN(S(=O)(=O)c2ccccc2)[C@@H](C(=O)OC)C1` | -7.774 |
| 27 | `NC(=O)c1ccc(N2CCCCC2)c(NC(=O)c2cc(F)ccc2F)c1` | -28.22 |
| 28 | `Cc1cc(C)nc(Nc2cccc(C3CCCN(C)C3)n2)n1.O=CO` (configuration not stated) | 20.03 |
| 29 | `COc1ccc(C[C@H]2CN(C(=O)CS(C)(=O)=O)CC[C@H]2OC)cc1` | 10.41 |
| 30 | `COc1ccc(S(=O)(=O)C(F)(F)F)cc1NC(=O)CSC` | -12.6 |
| 31 | `Cc1ccccc1C1(C(=O)N2CCOC(C)C2)CCOCC1` (configuration not stated) | -12.1 |
| 32 | `Nc1nccc(N2CCC(c3cc(Cc4ccccc4)n[nH]3)CC2)n1` | 36.98 |
| 33 | `CC1(C)OCC2(CO1)CN(C(=O)c1ccccc1Cl)C2` | 2.355 |
| 34 | `CC(C)c1cc(CN2CCC(N)CC2)no1` | 26 |
| 35 | `Cc1nc(NCC(O)CN2CCCCCC2)c2c(C)noc2n1` (configuration not stated) | 14.36 |
| 36 | `CC(C)(C)C(=O)NS(=O)(=O)c1ccc(C#N)c(C(F)(F)F)c1` | -18.41 |
| 37 | `O=C(O)C(F)(F)F.[H][C@]12CCC(=O)N(Cc3ccncc3)[C@@]1([H])CCN2C(=O)Cc1ccccc1` | -17.75 |
| 38 | `CN1CCCCC1c1ncc2c(n1)CCN(Cc1ccc(Cl)c(F)c1)C2` (configuration not stated) | 88.41 |
| 39 | `CCN(CC1CCOC1)C(=O)c1cc(OC)c2c(c1)OCCO2` (configuration not stated) | -8.083 |
| 40 | `Cn1cc(C(=O)Nc2cccc(F)c2)ccc1=O` | -8.817 |
| 41 | `CCN1CC2(CCC1=O)CCN(C(=O)c1ccc(C)cc1O)CC2` | -4.893 |
| 42 | `CCc1nc(C)c(C(=O)N(C)Cc2cnn(-c3cccc(OC)c3)c2)s1` | -24.48 |
| 43 | `Cn1cc(-c2csc(CN3CCOCC3)n2)cn1` | 3.872 |
| 44 | `CCCn1cc(CN2CCOCC2c2[nH]ncc2C)cn1` (configuration not stated) | -2.132 |
| 45 | `[H][C@@]12COC[C@]1(COCc1cccnc1)CN(C(=O)c1cc(C)on1)C2` | -28.84 |
| 46 | `CCC(=O)c1ccc(OCC(=O)NC(C)c2nnn[nH]2)cc1` (configuration not stated) | -38.47 |
| 47 | `CO[C@H]1CCN(S(=O)(=O)c2cccs2)[C@H]1Cc1ccncc1` | -20.43 |
| 48 | `Cn1cc(S(=O)(=O)NCc2ccsc2)cn1` | -16.74 |
| 49 | `Cn1cc(CN2CC[C@@H](NS(C)(=O)=O)[C@@H]2Cc2cccnc2)cn1.O=C(O)C(F)(F)F.O=C(O)C(F)(F)F` | -20.7 |
| 50 | `CC(C)c1nnc(NC(=O)N2CCN(C)CC2c2ccccc2)s1` (configuration not stated) | -22.99 |
| 51 | `CCOC1COC2(CCN(CC3CCOCC3)CC2)C1.O=C(O)C(F)(F)F` (configuration not stated) | -7.144 |
| 52 | `CSc1ncnc(NCc2cccs2)c1C#N` | -15.66 |
| 53 | `Cn1ccc(CN2CCC(CCc3ccc(O)cc3)CC2)cc1=O` | 5.64 |
| 54 | `Cc1nsc(N2CCCN(C(=O)NCc3cccnc3)CC2)n1` | -19.35 |
| 55 | `O=C(O)C(F)(F)F.[H][C@@]12CCN(Cc3cccc(C#N)c3)[C@@]1([H])CC(=O)N2CCOC` | 17.08 |
| 56 | `CC(NCCN1CCC(N(C)C)CC1)c1ccc(Cl)s1` (configuration not stated) | 9.26 |
| 57 | `CC(C(=O)N1CCN(C(=O)c2ccc(F)cc2F)CC1)n1ccnc1` (configuration not stated) | 26.19 |
| 58 | `CN(C)C(=O)COCC1CN(C2CCC2)Cc2ncn(C)c21.O=C(O)C(F)(F)F.O=C(O)C(F)(F)F` (configuration not stated) | -41.88 |
| 59 | `CCC(=O)N1CCC(c2nnc(Cn3cncn3)n2C2CC2)CC1` | -7.333 |
| 60 | `Cc1occc1C(=O)N1CCC(C(O)c2ccc(F)cc2)CC1` (configuration not stated) | 3.771 |
| 61 | `CCc1ccc(CN2Cc3nccn3CC(CN3CCOCC3)C2)o1.O=C(O)C(F)(F)F.O=C(O)C(F)(F)F.O=C(O)C(F)(F)F` (configuration not stated) | 29.13 |
| 62 | `Cc1cnn(CC2CN(CC(=O)Nc3cccnc3)CCO2)c1` (configuration not stated) | -28.49 |
| 63 | `Cc1ccccc1C(C(=O)NCc1nc(-c2ncccn2)no1)N(C)C` (configuration not stated) | -57.51 |
| 64 | `CCCc1c(C(=O)N2CCN(c3cnccn3)CC2)cnn1C` | -33.8 |

Repeated from the top, 4 entries:

For Cc1nsc(N2CCN(C(=O)Nc3cccc(F)c3)CC2)n1 the result was -5.442%.
For Cc1c(C(=O)O)cnn1-c1ccc(-c2nc(C3CC3)no2)cn1 the result was 6.66%.
For O=C(NCCc1ccccn1)N1CCOC(c2ccccc2Cl)C1 (configuration not stated) the result was -9.408%.
For COc1ccc(-n2cccn2)c(CN2CCC3(CCCN(C)C3=O)C2)c1 (configuration not stated) the result was -2.325%.

Source: ChEMBL document CHEMBL3988442, “University of Dundee, Small-Polar-MMV Screening Library” (2021).